Library screening results

Protein sequences, listed by entry. Tags and fused reporters are not part of them.
UniProt E9BF75, entry or part of it: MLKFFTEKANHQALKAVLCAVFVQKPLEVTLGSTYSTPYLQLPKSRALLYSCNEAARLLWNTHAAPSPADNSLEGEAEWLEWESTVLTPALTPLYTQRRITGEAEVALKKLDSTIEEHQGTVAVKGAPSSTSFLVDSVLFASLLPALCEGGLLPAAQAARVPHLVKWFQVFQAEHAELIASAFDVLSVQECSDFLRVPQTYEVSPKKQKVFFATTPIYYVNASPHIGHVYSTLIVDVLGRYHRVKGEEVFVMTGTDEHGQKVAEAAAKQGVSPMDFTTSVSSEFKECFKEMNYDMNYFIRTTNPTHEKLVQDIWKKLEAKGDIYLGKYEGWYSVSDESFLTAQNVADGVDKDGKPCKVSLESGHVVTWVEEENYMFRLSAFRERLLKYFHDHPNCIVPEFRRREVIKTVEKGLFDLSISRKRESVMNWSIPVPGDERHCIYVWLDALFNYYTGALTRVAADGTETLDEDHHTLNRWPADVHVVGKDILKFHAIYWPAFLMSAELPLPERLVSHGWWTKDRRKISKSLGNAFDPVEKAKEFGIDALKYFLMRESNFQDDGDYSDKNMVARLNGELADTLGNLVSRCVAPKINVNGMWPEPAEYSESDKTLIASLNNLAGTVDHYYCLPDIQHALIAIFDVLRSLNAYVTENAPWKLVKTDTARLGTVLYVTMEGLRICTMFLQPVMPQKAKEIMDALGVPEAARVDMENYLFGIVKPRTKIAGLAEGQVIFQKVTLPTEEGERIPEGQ

All values are in %. The record does not define 0% and 100%; most values in the screen are far below 50% and negative numbers occur (in some assays of this library far below -100). The compounds are a random part of those screened. A dash means the value is not listed here; it may have been measured.

Mtb heat-shock: 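Assay on Mycobacterium tuberculosis, filed only as a heat shock assay from Cornell; the read-out is not stated. The concentration is filed as 10 mM, unlikely as a test dose, so the dose is not known. The record gives no direction; compounds that gave an IC50 in retests scored well above the rest, so higher reads as stronger inhibition. Size under these conditions: about 69,000 compounds, about 930 of them at 50% or above in at least one test.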
LdMetRS: 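Primary screen of methionyl-tRNA synthetase; the read-out is not stated. Target: Methionyl-tRNA synthetase (putative), Leishmania donovani (UniProt E9BF75). The test concentration is not given. Values are per cent inhibition. About 68,000 compounds were tested under these conditions; 0.035% (about 24) showed 50% or more at least once.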
Mtb growth Cornell: 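Whole-cell assay for inhibitors of Mycobacterium tuberculosis growth, labelled Cornell in the record; the read-out is not stated. The concentration is filed as 10 mM, unlikely as a test dose, so the dose is not known. Higher means stronger inhibition (inferred from two other growth screens of the library). Of about 53,000 compounds tested this way, about 900 (1.7%) reached 50% or more in at least one test.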

Compound	Mtb heat-shock	LdMetRS	Mtb growth Cornell
O=C1OCCN1c1cccc(CNCc2cc(F)ccc2F)c1	-21.84	2.507	-
Cn1cc(CN2CCCC3(CCN(c4nncs4)C3)C2)cn1.O=C(O)C(F)(F)F (stereo unspecified)	-16.79	-	-4.896
CC(=O)NCC(=O)N1CCC2(CC1)CN(c1cccnc1)C(=O)CO2	11.42	13.8	-7.242
CC(NS(C)(=O)=O)C(=O)N(C)Cc1csc(-c2ccccc2)n1 (stereo unspecified)	-20.56	13.4	-
CSCC[C@H](NC(=O)Cn1ccc2c(Cl)cccc21)C(=O)O	7.978	15.35	-
Cc1cc(CNc2cc(Cl)ccc2OCCS(C)(=O)=O)no1	5.951	12.27	-0.6634
CS(=O)(=O)Nc1nn(Cc2ccc(F)cc2)cc1Br	-17.28	19.35	-
CCOc1ccccc1C(C(=O)O)N(C)Cc1nc(C)c[nH]1 (stereo unspecified)	13.23	20.32	12.22
CCCNC(=O)NC(=O)CN1CCN(Cc2nccn2CC)CC1	-6.889	8.947	-
O=C1N(CC2CC2)CCC12CCN(CC1CC1)CC2	-	8.651	-
O=C(c1cccc(F)c1)N1C[C@@H](CN2CCCCC2)[C@@H](CO)C1	-0.6196	12.85	-11.94
Cc1cccn2c(=O)cc(CSCC(=O)Nc3nnc(C(C)C)s3)nc12	-17.47	9.492	-
Cc1ncsc1C(=O)NCCNc1ncccc1C#N	6.531	15.64	-
Cc1cc(=O)[nH]c(=O)n1Cc1ccccc1	-11.81	6.969	-
[H][C@@]12CCN(C(=O)c3cccn3C)C[C@@]1([H])O[C@@H](C)C2	5.25	-	-3.023
CNS(=O)(=O)CC(=O)N(Cc1c(F)cccc1Cl)C1CC1	1.692	12.15	1.065
Cc1noc(C)c1-c1nc(N(C)C)ncc1-c1cnccn1	-9.02	7.717	-5.73
CCS(=O)(=O)N1CCC2(CC1)CC(Oc1ccccn1)CO2.O=C(O)C(F)(F)F (stereo unspecified)	10.56	-	16.4
Cc1ccc(CC2COCCN(S(=O)(=O)c3ccccc3)C2)nc1 (stereo unspecified)	-5.615	20	28.61
O=C(Cc1ccon1)N1CCN(c2ccncc2Cl)CC1	-15.6	9.946	-
Cc1nc(C)n(C2CCCN(C(=O)c3cccc4cn[nH]c34)C2)n1 (stereo unspecified)	16.08	7.904	-21.89
COCCN1CC2(CCN(Cc3ccco3)CC2)c2ccccc21	7.176	8.333	57.89
N#Cc1cccc(CN2CCC3(CC(C(=O)NCC4CC4)=NO3)C2)c1 (stereo unspecified)	-31.34	12.78	7.858
Cc1cnn(-c2ccc(C(=O)N3CCN(C)CC3C)cc2)c1 (stereo unspecified)	-37.69	7.639	22.23
Fc1ccccc1-c1nccnc1C1CCCNC1 (stereo unspecified)	11.93	11.61	6.685
O=C(CSc1ccc2c(c1)OCCO2)NS(=O)(=O)c1ccccc1Br	-13.56	10.86	-11.62
Cc1ccc(CN2CCC3(CC2)CC(N2CCN(C)CC2)CO3)s1.O=C(O)C(F)(F)F.O=C(O)C(F)(F)F.O=C(O)C(F)(F)F (stereo unspecified)	-0.2627	-	-0.007786
COCc1ncn2c1CN(C(=O)C1CC=CC1)CC2	-1.838	19.7	10.24
O=C(Cn1cnnn1)N1CCCCC1Cn1cccn1 (stereo unspecified)	-3.462	1.408	-45.24
O=C(C1CCCC1)N1C[C@@H]2CCN(c3cnccn3)C[C@@H]2C1	-	11.22	-
c1cncc(COCC2CN(Cc3ccsc3)Cc3ccnn3C2)c1 (stereo unspecified)	-32.34	5.842	11.62
CC(=O)N1CCC[C@H]1C(=O)NCCOc1cccc(Cl)c1	-2.302	7.692	-2.075
Cc1ccc(CN(C)C(=O)CN2CCc3ccccc3C2)o1	11.42	11.26	0.3113
CNC(=O)NC(=O)COc1c(C(C)=O)ccc(Cl)c1Cl	8.769	13.69	8.21
N#Cc1ncn(CCC(=O)Nc2cccc(Cl)c2)n1	17.66	15.95	68.3
c1cc2nccc(CC3CCCN(C4CCOCC4)CC3)c2cn1 (stereo unspecified)	-	17.51	-
NC(CC1CCCCC1)c1ccccc1 (stereo unspecified)	-	12.81	-
OCCNc1nccc(-c2c[nH]nc2-c2ccco2)n1	-21.11	5.583	-14.64
CN(C)C(=O)CN1CCOCC2(CCN(CC3CCOCC3)CC2)C1.O=C(O)C(F)(F)F.O=C(O)C(F)(F)F	-43.48	-	-10.27
CN1CC2(CCCN(Cc3nnc(-c4ccccc4)o3)CC2)OC1=O (stereo unspecified)	-3.55	7.5	-39.07
NC1C=C(C(F)(F)F)NC=C1c1ccccc1 (stereo unspecified)	2.644	10	1.931
CCn1ccnc1CN1CCN(CCC(=O)NC(C)(C)C)CC1C (stereo unspecified)	0.7573	17.14	-40.76
[H][C@]12CC[C@]([H])(CN(Cc3[nH]cnc3C)C1)N(C(=O)c1cnn(C)c1)C2	-6.364	-	-46.67
O=c1ccc(-c2cccs2)nn1CN1CCc2ccccc2C1	0.3184	14.85	29.62
[H][C@@]12COC[C@]1(COCc1cccnc1)CN(C(=O)c1ncccn1)C2	-11.54	-	-10.04
O=C(O)C(F)(F)F.[H][C@@]12CCN(c3cnccn3)C[C@]1([H])CN(C(=O)CC)C2	-28.75	-	-60.97
CCc1ccsc1C(=O)N1CCS(=O)(=O)CC1	19.61	8.696	-7.31
Cc1nc(CN2CCCN(C(=O)c3c(C)noc3C)CC2)cs1	14.7	9.399	-17.96

Repeated from the top, 5 entries:

O=C1OCCN1c1cccc(CNCc2cc(F)ccc2F)c1 read Mtb heat-shock: -21.84%; LdMetRS: 2.507%.
Cn1cc(CN2CCCC3(CCN(c4nncs4)C3)C2)cn1.O=C(O)C(F)(F)F (stereo unspecified) read Mtb heat-shock: -16.79%; Mtb growth Cornell: -4.896%.
CC(=O)NCC(=O)N1CCC2(CC1)CN(c1cccnc1)C(=O)CO2 read Mtb heat-shock: 11.42%; LdMetRS: 13.8%; Mtb growth Cornell: -7.242%.
CC(NS(C)(=O)=O)C(=O)N(C)Cc1csc(-c2ccccc2)n1 (stereo unspecified) read Mtb heat-shock: -20.56%; LdMetRS: 13.4%.
CSCC[C@H](NC(=O)Cn1ccc2c(Cl)cccc21)C(=O)O read Mtb heat-shock: 7.978%; LdMetRS: 15.35%.

From ChEMBL document CHEMBL3988442, “University of Dundee, Small-Polar-MMV Screening Library” (2021).